PubChem BioAssay AID493246 – Drosophila RNAi Screening Center, 2011
Purpose: 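Genome-wide search for dsRNAs that reduce cell number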 (primary screen). Cell system: Drosophila Kc and S2R+ cells. Reagent: long dsRNA against Drosophila genes. Read-out: 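Cell number per well after knock-down, printed as raw plate values; calls were based on per-plate z-scores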. Scale: Kc cell number and S2R+ cell number: higher = more cells remaining. Active means: 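Active when the per-plate z-score of cell number is 3 or more in the direction of fewer cells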.
In all, the deposit lists about 21,000 reagents; this is a random part of those that have a named target and a result. In the full data, 429 (2%) are marked active. 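Values are raw and not normalised between plates; calls rest on per-plate z-scores that were not deposited.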 Reagents against one gene are numbered here. Names joined by + are all predicted targets of the reagent. The record does not give: the amount of reagent, the time to read-out.

| gene | reagent | Kc cell number, rep 1 | Kc cell number, rep 2 | S2R+ cell number, rep 1 | S2R+ cell number, rep 2 | Call |
| --- | --- | --- | --- | --- | --- | --- |
| Cpr49Af (Cuticular protein 49Af) | 1 | 1.46e6 | 1.54e6 | 1.20e6 | 1.41e6 | inactive |
| CG46298 | 1 | 1.48e6 | 1.61e6 | 1.10e6 | 1.13e6 | inactive |
| CG5065 | 1 | 1.60e6 | 1.61e6 | 1.19e6 | 1.31e6 | inactive |
| Kap-alpha1 (karyopherin alpha1) | 1 | 1.33e6 | 1.33e6 | 1.29e6 | 1.35e6 | inactive |
| CG4617 | 1 | 5.52e5 | – | 9.02e5 | – | inactive |
| Pp2A-29B (Protein phosphatase 2A at 29B) | 1 | 1.54e6 | 1.58e6 | 1.23e6 | 1.36e6 | inactive |
| otk (off-track) | 1 | 1.60e6 | 1.70e6 | 1.36e6 | 1.52e6 | inactive |
| CG32305 | 1 | 1.42e6 | 1.31e6 | 9.92e5 | 1.25e6 | inactive |
| CG18808 | 1 | 1.28e6 | 1.36e6 | 1.11e6 | 1.15e6 | inactive |
| CG5861 | 1 | 1.51e6 | 1.80e6 | 1.33e6 | 1.47e6 | inactive |
| CG31360 | 1 | 1.40e6 | 1.46e6 | 1.04e6 | 1.07e6 | inactive |
| Osi2 (Osiris 2) | 1 | 1.62e6 | 1.73e6 | 1.30e6 | 1.42e6 | inactive |
| SmydA-1 (SET and MYND domain containing, arthropod-specific, member 1) | 1 | 1.45e6 | 1.54e6 | 1.15e6 | 1.25e6 | inactive |
| UQCR-14L (Ubiquinol-cytochrome c reductase 14 kDa subunit-like) | 1 | 1.57e6 | 1.56e6 | 1.03e6 | 1.19e6 | inactive |
| CG6836 | 1 | 1.83e6 | 1.91e6 | 1.58e6 | 1.54e6 | inactive |
| spz5 (spatzle 5) | 1 | 1.34e6 | 1.40e6 | 1.19e6 | 1.12e6 | inactive |
| ARY (retired record) | 1 | 1.21e6 | 1.59e6 | 1.20e6 | 1.18e6 | inactive |
| ND-49 (NADH dehydrogenase (ubiquinone) 49 kDa subunit) | 1 | 1.31e6 | 1.35e6 | 7.91e5 | 9.18e5 | inactive |
| DAT (Dopamine transporter) | 1 | 1.58e6 | 1.63e6 | 1.24e6 | 1.39e6 | inactive |
| squ (squash) | 1 | 1.41e6 | 1.47e6 | 9.47e5 | 1.13e6 | inactive |
| vrs (versager) | 1 | 1.58e6 | 1.71e6 | 1.38e6 | 1.50e6 | inactive |
| Cpr78Cb (Cuticular protein 78Cb) | 1 | 1.46e6 | 1.54e6 | 1.26e6 | 1.39e6 | inactive |
| CG13097 | 1 | 8.94e5 | 8.47e5 | 6.50e5 | 5.82e5 | active |
| CG32055 | 1 | 1.33e6 | 1.44e6 | 1.24e6 | 1.16e6 | inactive |
| mRpS29 (mitochondrial ribosomal protein S29) | 1 | 1.26e6 | 1.34e6 | 9.69e5 | 1.07e6 | inactive |
| CG6610 | 1 | 1.71e6 | 1.77e6 | 9.99e5 | 1.12e6 | inactive |
| CG30460 | 1 | 1.61e6 | 1.65e6 | 1.14e6 | 1.21e6 | inactive |
| CG30460 | 2 | 8.65e5 | 1.34e6 | 4.05e5 | 5.40e5 | active |
| Ir54a + sub | 1 | 1.55e6 | 1.54e6 | 1.27e6 | 1.40e6 | inactive |
| TTLL4B (Tubulin tyrosine ligase-like 4B) | 1 | 1.28e6 | 1.34e6 | 8.01e5 | 8.51e5 | inactive |
| mRpL30 (mitochondrial ribosomal protein L30) | 1 | 1.51e6 | 1.55e6 | 9.56e5 | 1.08e6 | inactive |
| CG3862 | 1 | 1.31e6 | 1.61e6 | 1.17e6 | 1.30e6 | inactive |
| CG1636 | 1 | 1.61e6 | 1.52e6 | 1.11e6 | 1.22e6 | inactive |
| Hrb87F (Heterogeneous nuclear ribonucleoprotein at 87F) | 1 | 1.54e6 | 1.55e6 | 1.08e6 | 1.22e6 | inactive |
| CG3557 | 1 | 1.38e6 | 1.37e6 | 1.05e6 | 1.00e6 | inactive |
| trp (transient receptor potential) | 1 | 1.38e6 | 1.42e6 | 1.05e6 | 1.10e6 | inactive |
| Kah (Kahuli) | 1 | 1.62e6 | 1.70e6 | 1.07e6 | 1.32e6 | inactive |
| Kah (Kahuli) | 2 | 1.44e6 | 1.23e6 | 1.12e6 | 1.38e6 | inactive |
| CG14285 | 1 | 1.45e6 | 1.47e6 | 1.11e6 | 1.19e6 | inactive |
| Ir87a (Ionotropic receptor 87a) | 1 | 1.23e6 | 1.31e6 | 1.09e6 | 1.23e6 | inactive |
| Octbeta3R (Octopamine beta3 receptor) | 1 | 1.41e6 | 1.46e6 | 1.31e6 | 1.36e6 | inactive |
| Octbeta3R (Octopamine beta3 receptor) | 2 | 1.54e6 | 1.57e6 | 1.21e6 | 1.26e6 | inactive |
| bam (bag of marbles) | 1 | 1.59e6 | 1.58e6 | 1.05e6 | 1.19e6 | inactive |
| Obp99c (Odorant-binding protein 99c) | 1 | 1.77e6 | 1.78e6 | 1.03e6 | 1.16e6 | inactive |
| Cyp4c3 (Cytochrome P450 4c3) | 1 | 5.17e5 | – | 7.70e5 | – | inactive |
| CG11398 | 1 | 1.42e6 | 1.44e6 | 1.04e6 | 1.20e6 | inactive |
| CtsL1 (Cathepsin L1) | 1 | 1.53e6 | 1.52e6 | 1.06e6 | 1.27e6 | inactive |
| CtsL1 (Cathepsin L1) | 2 | 1.39e6 | 1.41e6 | 1.09e6 | 1.13e6 | inactive |
| CG12951 | 1 | 1.72e6 | 1.64e6 | 1.26e6 | 1.36e6 | inactive |
| IleRS (Isoleucyl-tRNA synthetase) | 1 | 1.72e6 | 1.74e6 | 1.23e6 | 1.32e6 | inactive |
| CG7133 | 1 | 1.48e6 | 1.53e6 | 1.24e6 | 1.32e6 | inactive |
| Crtp (Caldesmon-related protein) | 1 | 1.66e6 | 1.72e6 | 1.24e6 | 1.38e6 | inactive |
| Mical (Molecule interacting with CasL) | 1 | 1.61e6 | 1.57e6 | 1.25e6 | 1.45e6 | inactive |
| Mical (Molecule interacting with CasL) | 2 | 1.65e6 | 1.70e6 | 1.20e6 | 1.35e6 | inactive |
| Mical (Molecule interacting with CasL) | 3 | 1.69e6 | 1.66e6 | 1.23e6 | 1.32e6 | inactive |
| Mical (Molecule interacting with CasL) | 4 | 1.70e6 | 1.68e6 | 1.23e6 | 1.38e6 | inactive |
| Tsp97E (Tetraspanin 97E) | 1 | 5.56e5 | – | 8.08e5 | – | inactive |
| CG30058 + CG34235 + CG34312 | 1 | 1.57e6 | 1.52e6 | 1.08e6 | 1.23e6 | inactive |
| hpo (hippo) | 1 | 1.37e6 | 1.40e6 | 1.19e6 | 1.14e6 | inactive |

Copied from the entries so far for reference:
| gene | reagent | Kc cell number, rep 1 | Kc cell number, rep 2 | S2R+ cell number, rep 1 | S2R+ cell number, rep 2 | Call |
| --- | --- | --- | --- | --- | --- | --- |
| CG3862 | 1 | 1.31e6 | 1.61e6 | 1.17e6 | 1.30e6 | inactive |
| CG1636 | 1 | 1.61e6 | 1.52e6 | 1.11e6 | 1.22e6 | inactive |
| Hrb87F (Heterogeneous nuclear ribonucleoprotein at 87F) | 1 | 1.54e6 | 1.55e6 | 1.08e6 | 1.22e6 | inactive |
| CG3557 | 1 | 1.38e6 | 1.37e6 | 1.05e6 | 1.00e6 | inactive |
| trp (transient receptor potential) | 1 | 1.38e6 | 1.42e6 | 1.05e6 | 1.10e6 | inactive |
| Kah (Kahuli) | 1 | 1.62e6 | 1.70e6 | 1.07e6 | 1.32e6 | inactive |
| Kah (Kahuli) | 2 | 1.44e6 | 1.23e6 | 1.12e6 | 1.38e6 | inactive |
| CG14285 | 1 | 1.45e6 | 1.47e6 | 1.11e6 | 1.19e6 | inactive |
| Ir87a (Ionotropic receptor 87a) | 1 | 1.23e6 | 1.31e6 | 1.09e6 | 1.23e6 | inactive |
